PubChem BioAssay AID1224830 | NIAID – 2016

- Screen: 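Genes whose knock-down alters the TNF-alpha reporter response to LPS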 (primary screen)
- Cells: human THP-1 monocytic leukaemia cells, TNF dual-luciferase reporter clone, PMA-differentiated to macrophage-like cells
- Reagents: siRNA pool against human genes, 50 nM
- Time to read-out: LPS for 4 h, given about 3 days after siRNA transfection
- Conditions: bacterial LPS (TLR4 ligand), 10 ng/ml
- Detection: 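TNF firefly reporter luminescence divided by renilla, normalised to the plate median, then turned into a robust z-score for each replicate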
- Scale: TNF reporter robust z-score: higher = stronger TNF reporter response to LPS
- Rule for the call: 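a well is active when its z-score exceeds 2.8 or falls below -1.5; control wells carry no call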
The whole screen tested about 18,000 reagents; below is an unselected part. In the full data, about 2,900 (16%) were called active. 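Calls are made per well; low scores hint the gene aids the LPS response, high scores that it dampens it.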 A number with no mark means an inactive call. Repeated entries: four replicate wells of each siRNA pool.

TNF reporter robust z-score	gene
-0.14	HIVEP2
0.23	HIVEP2
0.35	HIVEP2
2.14	HIVEP2
-0.89	C12orf71
-1.36	C12orf71
-0.35	C12orf71
-0.72	C12orf71
-0.62	B3GNT2
1.01	B3GNT2
-0.18	B3GNT2
-0.34	B3GNT2
0.3	OR2G6
0.96	OR2G6
-0.56	OR2G6
0.8	OR2G6
-1.47	CALN1
-1.71 (active)	CALN1
0.91	CALN1
0.17	CALN1
-0.46	CACNA1D
0.28	CACNA1D
1.17	CACNA1D
-0.24	CACNA1D
0.01	SQSTM1
1.17	SQSTM1
1.23	SQSTM1
1.41	SQSTM1
0.16	SGCE
-0.29	SGCE
-0.67	SGCE
-1.27	SGCE
-2.11 (active)	TIRAP
-2.17 (active)	TIRAP
-2.21 (active)	TIRAP
-1.96 (active)	TIRAP
0.93	PDE4DIP
2.12	PDE4DIP
-0.89	PDE4DIP
-0.24	PDE4DIP
0.85	OR52E2
-0.19	OR52E2
0.24	OR52E2
-0.31	OR52E2
2.19	ZNF569
0.02	ZNF569
1.19	ZNF569
0.66	ZNF569
-0.59	SYCP2L
-0.02	SYCP2L
0.05	SYCP2L
0.4	SYCP2L
-0.04	ZNF202
-0.19	ZNF202
0.05	ZNF202
-0.54	ZNF202
-0.63	MRPL30
-0.85	MRPL30
-0.82	MRPL30
-0.62	MRPL30
2.07	OTULINL
0.13	OTULINL
-0.01	OTULINL
-0.1	OTULINL
-0.56	ZBTB22
0.27	ZBTB22
-0.7	ZBTB22
-0.12	ZBTB22
0.33	HSDL2
2.51	HSDL2
0.19	HSDL2
0.89	HSDL2
-0.02	UBTD2
-0.24	UBTD2
0.05	UBTD2
-1.09	UBTD2
-1.33	FOXD4L1
-1.07	FOXD4L1
-0.1	FOXD4L1
-1.58 (active)	FOXD4L1
-0.06	ASB3
4.82 (active)	ASB3
-0.95	ASB3
1.89	ASB3
-1.27	CEP250
-1.53 (active)	CEP250
-0.72	CEP250
-0.75	CEP250
-0.47	NKX2-2
-0.8	NKX2-2
-0.26	NKX2-2
-0.4	NKX2-2
-1.13	CRISP2
-1.42	CRISP2
-1.05	CRISP2
-1.1	CRISP2
-0.6	TEX12
-0.4	TEX12
-0.8	TEX12
1.66	TEX12
1.06	NDUFV3
1.19	NDUFV3
0.86	NDUFV3
0.87	NDUFV3
-0.97	TLE1
0.67	TLE1
-0.71	TLE1
-0.58	TLE1
0.92	ACP7
1.84	ACP7
1.29	ACP7
1.27	ACP7

14 entries already listed, arranged by “TNF reporter robust z-score”, highest first.
TNF reporter robust z-score	gene
2.19	ZNF569
1.19	ZNF569
0.85	OR52E2
0.66	ZNF569
0.4	SYCP2L
0.24	OR52E2
0.05	SYCP2L
0.02	ZNF569
-0.02	SYCP2L
-0.04	ZNF202
-0.19	OR52E2
-0.24	PDE4DIP
-0.31	OR52E2
-0.59	SYCP2L
